Assay results taken from patent US6428983B1, “Histone deacetylase as target for antiprotozoal agents” (Merck & Co., priority 1995, dated 2002).
For at least one compound, name, drawing or mass did not settle the structure. Some of these results come from one statement about several compounds together.

Tests used:
[1] = biological target: histone deacetylase (chicken liver extracts); test: Histone deacetylase inhibition assay (Assay 1), chicken liver extract; type: biochemical; conditions: Assay 1, chicken liver extracts
Method: (§1) The standard assay contained in a total volume of 40 μL: 400 nmol HEPES-sodium, pH 7.4, 100 pmol of the substrate [AcGly-Ala-Lys(ε-^14C-Ac)-Arg-His-Arg-Lys(ε-^14C-Ac)-ValNH2] (see Kervabon et al (1979) FEBS Letters 106: 93-96) having a specific activity of approx. 114 mCi/mmol, and a source of histone deacetylase (HDAase) activity. The amount of HDAase added was chosen such that ≦20% of the substrate was consumed during the assay. The reaction was initiated by enzyme addition and allowed to proceed for 60 min at 41°. At 60 min, the reaction was terminated by the addition of a 50% slurry of Amberlite® AG 50W×4 cation exchange resin, sodium form (200-400 mesh) in 25 mM sodium acetate buffer, pH 4.2 (200 μL). The resin binds both remaining substrate and the (partially) deacetylated peptidyl products. The quenched reaction was then incubated for at least 30 min at 25° with occasional mixing, diluted with additional 25 mM sodium acetate buffer, pH 4.2 (760 μL; final volume 1000 μL), incubated for a minimum of an additional 30 min at 25° with occasional mixing, and then centrifuged at 10,000×g for 1 min. An aliquot of the supernatant (800 μL) containing the enzymatically released ^14C-acetate was removed, mixed with Aquasol 2 liquid scintillation counter (LSC) cocktail (10 mL), and counted in a Beckman model LS-5801 LSC. […]

[2] = biological target: histone deacetylase (E. tenella extract); test: Histone deacetylase inhibition assay (Assay 1), E. tenella extract; type: biochemical, Eimeria tenella
Method: as §1

[3] = biological target: histone deacetylase (chicken liver lysate); test: Competitive binding assay with 3H-N-desmethoxyapicidin, chick liver S100 lysate; conditions: 3H-N-desmethoxyapicidin ligand
Method: Chick Liver. Livers from 3-5 three week old chickens are collected, rinsed in ice cold phosphate buffered saline (pH 7.4), diced into small pieces and rinsed again 3-4 times with ice cold 50 mM N-2-hydroxyethylpiperazine-N′-2-ethanesulfonic acid (HEPES) (pH 7.4) containing 0.1 mM phenylmethanesulfonyl fluoride (PMSF). The tissue is then resuspended in HEPES buffer, homogenized in a polytron homogenizer and centrifuged at 3000×g for 10 min. The supernatant is then subjected to an additional 100,000 g centrifugation for 1 hour. The pellet and the floating layer of lipid are discarded and the supernatant, referred to as the chick liver S100 fraction, is retained for binding assays. After estimating the protein concentration, the supernatant (S100) is aliquoted and frozen at −80 C.
(§2) Each assay tube contains a final volume of 1 ml with 1.3 ng/ml of ^3H-N-desmethoxyapicidin, 150-200 μg of the appropriate S100 supernatant and concentrations of potential HDA inhibitors from 0.001-10 μg/ml.
(i) labeled substrate. 2-^3H-N-desmethoxyapicidin (18.69 mCi/mg) is diluted 1:100 in ethanol, and 2 μl added per 1 ml of 50 mM HEPES pH 7.4 with 0.05% Triton-X100 (HEPES/Triton®) is added. This provides 1.3 ng 2-^3H-N-desmethoxyapicidin /ml of assay (54,000 DPM/ml.)
(ii) potential HDA inhibitors. The stocks of the test compounds are made up to 2 mg/ml dimethylsulfoxide (DMSO). The stock solution is diluted to 1000, 100, 10, 1 and 0.1 μg/ml in ethanol where a full titration is required. Ethanol is used as a negative control, a 100 μg/ml solution of unlabeled N-desmethoxyapicidin is used as a positive control. Six μl of the test compound solution, the positive and negative controls are used for the assay.
(iii) supernatant from (a). […]
(§3) Stock solutions of potential HDA inhibitors (ii) are diluted into 50 mM HEPES/Triton® buffer to achieve a final concentration of test compound in the range of 0.001-10 μM. ^3H-N-desmethoxyapicidin is added to a final concentration of 1.3 ng/ml. […] The filter is then dried and counted in scintillant.

[4] = system: histone deacetylase (E. tenella lysate); test: Competitive binding assay with 3H-N-desmethoxyapicidin, E. tenella S100 lysate; conditions: E. tenella vs chicken liver lysate
Method: E. tenella oocysts. Approximately 2×10^9 E. tenella oocysts are suspended in 5 ml of PBS/0.1 mM PMSF, 4 mls of an equal mixture (vol/vol) of 4.0 and 1.0 mm glass beads is added. The glass bead-oocyst mixture is then shaken for 20 minutes to cause disruption of the oocysts. The efficiency of breakage is checked microscopically. The resulting homogenate is separated from the glass beads and centrifuged at 3000×g for 10 min. The supernatant is then subjected to an additional centrifugation at 100,000 g for 1 hr. The pellet is discarded and the supernatant, referred to as the E. tenella S100 fraction, is retained for binding assays. After estimating the protein concentration, the supernatant (S100) is aliquoted and frozen at −80 C.
as §2
(i) labeled substrate. […]
as §3

| Structure (SMILES) | IC50 in enzyme inhibition assay, chicken liver extract [1] | IC50 in enzyme inhibition assay, E. tenella extract [2] | IC50 [3] | Selectivity for E. tenella over chicken liver lysate in binding assay [4] |
| --- | --- | --- | --- | --- |
| CCCC(=O)O [n-butyrate] | consistent with those reported in the literature | consistent with those reported in the literature |  |  |
| CCC(=O)CCCCCC1NC(=O)C2CCCCN2C(=O)C(C(C)CC)NC(=O)C(c2cn(OC)c3ccccc3c2=O)NC1=O (stereo not shown) [Compound IIA] |  |  | > 1 µM | selective for E. tenella over chicken liver lysate |
| CC(/C=C/C(=O)O)=C\[C@@H](C)C(=O)c1ccc(N(C)C)cc1 [trichostatic acid] |  |  | > 1 µM |  |
| CCC(=O)CCCCCC1NC(=O)C2CCCCN2C(=O)C(C(C)CC)NC(=O)C(c2c[nH]c3ccccc3c2=O)NC1=O (stereo not shown) [Compound IIB] |  |  | > 1 µM | selective for E. tenella over chicken liver lysate |
